In PubChem BioAssay AID493014 (National Center for Advancing Translational Sciences (NCATS), 2011):
The whole screen tested about 340,000 compounds, of which about 170 (0.05%) were called active. Inconclusive means that the source gave no clear call. Such entries were picked first, then a sample of the others. Calls come from the whole dose curve; as a rule, active = well fitted inhibition curve with a large enough effect in the signal ratio, with a control signal flat (not every such curve was filed as active); inconclusive = small, poorly fitted or top-dose-only effect, or effect the other way, or a change in a side signal; inactive = flat fitted curve, though single readings scatter; the % refers to the signal ratio. Potencies of inconclusive entries are doubtful fits and often do not repeat.

Assay: qHTS Assay to Find Inhibitors of Chronic Active B-Cell Receptor Signaling;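 for activity change, negative = inhibition: plate controls were basal doxycycline-induced cells for no effect and cells given 10 µM MG132 for full effect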
Details: ABC-DLBCL IkBa-CBG/CBR reporter, luminescence ratio (green luciferase fused to IkBa over red control in TMD8 lymphoma cells), 4 h; activity change, negative = inhibition: at 46.1 µM (top of the series) unless noted
Summary of the method: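 TMD8 ABC-DLBCL cells carrying doxycycline-inducible green luciferase fused to IkappaBalpha plus unfused red luciferase were exposed to compounds (up to 46 uM) for 4 hrs at 37C. Activity came from the overlap-corrected green/red luminescence ratio.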
Potency is the fitted concentration of half-maximal effect.

| SMILES | activity change, negative = inhibition | Potency |
| --- | --- | --- |
| CNCCC1Sc2ccccc2Oc2ccccc21 (stereo not drawn) | inconclusive: -5.1% | – |
| COc1cccc(CN2CCN(C(=O)c3ccc(-c4ccccc4)cc3)CC2)c1OC | – | inconclusive: 15.8 µM [falling, partial curve, poor fit] |
| COc1ccc2oc(C(=O)N3CCN(C(c4ccccc4)c4ccccc4)CC3)c(C)c2c1 | inconclusive: -3.46% | – |
| O=S(=O)(O/N=C1\CCCc2ccccc21)c1ccc(Cl)cc1 | inconclusive: 0.984% | – |
| C=CCn1c2ccccc2c(=O)c2cc(C#CC[C@@H](C)O)ccc21 | inactive | – |
| CCN(C(=O)COC(=O)c1ccc(COc2ccc3c(C)cc(=O)oc3c2)cc1)C1CCS(=O)(=O)C1 (stereo not drawn) | – | inconclusive: 5.62 µM [falling, partial curve] |
| CCOC(=O)c1c(-c2ccc(Cl)cc2)csc1NC(=O)CNCc1ccco1 | inconclusive: 8.63% | – |
| O=[N+]([O-])c1ccc(S(=O)(=O)Nc2nnc(C(F)(F)F)s2)cc1 | inactive | – |
| C=CCOC(=O)C1=C(C)NC(=O)NC1/C=C/c1ccccc1OC (stereo not drawn) | – | inconclusive: 4.47 µM [falling, full curve, poor fit] |
| COc1ccc(-c2nnc(SC)n2C)cc1 | inconclusive: -1.81% | – |
| Cc1ccc2c(c1)c(C)c(C)n2CC(O)Cn1nc(C)c(Br)c1C (stereo not drawn) | inconclusive: 0.133% | – |
| O=C(c1ccccc1)c1ccc(OCCO)cc1 | – | inconclusive: 35.5 µM [falling, single point] |
| Cc1cccc(NC(=O)Cn2c(O)c(N=NC(=O)c3ccccc3O)c3ccccc32)c1 | – | inconclusive: 1.84 µM [falling, full curve] |
| CCOC(=O)c1cc(=O)n2nc(-c3ccccc3F)nc2s1 | inconclusive: 16% | – |
| COc1ccc(OCC(=O)NC2CCCc3ccccc32)cc1 (stereo not drawn) | inactive | – |
| COc1ccccc1OCCNC(=O)c1c(-c2ccccc2Cl)noc1C | inactive | – |
| CCN1Cc2c(/C=C/c3ccccc3)nc3ccc(OC)cc3c2N(c2cccc(Cl)c2)C1 | inconclusive: -1.62% | – |
| Oc1ccc(Cl)cc1-c1cc(-c2ccco2)[nH]n1 | inactive | – |
| C/C(=N/NC(=S)Nc1ccccc1)c1ccc2c(c1)OCO2 | – | inconclusive: 13 µM [falling, partial curve] |
| Cc1nc(Sc2ccccc2)c(C#N)cc1-c1ccccc1 | – | inconclusive: 8.91 µM [rising, partial curve] |
| O=C(CN1C(=O)CCC1=O)Nc1nc(-c2ccccn2)cs1 | inconclusive: 16.7% | – |
| COc1cc(OC)cc(C(=O)n2nc(C)cc2C)c1 | inconclusive: 1.87% | – |
| CCOC(=O)CC1C(=O)NCCN1C(=O)c1ccc(Cl)cc1 (stereo not drawn) | inconclusive: 1.47% | – |

An excerpt from above in order of length of the SMILES, rising.

| SMILES | activity change, negative = inhibition | Potency |
| --- | --- | --- |
| COc1ccc(-c2nnc(SC)n2C)cc1 | inconclusive: -1.81% | – |
| O=S(=O)(O/N=C1\CCCc2ccccc21)c1ccc(Cl)cc1 | inconclusive: 0.984% | – |
| O=[N+]([O-])c1ccc(S(=O)(=O)Nc2nnc(C(F)(F)F)s2)cc1 | inactive | – |
